Experimental data published in paper PMC10154249, “Unique progerin C-terminal peptide ameliorates Hutchinson–Gilford progeria syndrome phenotype by rescuing BUBR1” (Nature Aging, 2023).

Amino acid sequences for entries named in this document (tags omitted). A change or cut given only in a name is not applied to a line headed by its entry. Chains listed by the source or under a name are the forms on record and can include a tag or linker.
Flag-progerin (HEK-293T) (P02545, form named): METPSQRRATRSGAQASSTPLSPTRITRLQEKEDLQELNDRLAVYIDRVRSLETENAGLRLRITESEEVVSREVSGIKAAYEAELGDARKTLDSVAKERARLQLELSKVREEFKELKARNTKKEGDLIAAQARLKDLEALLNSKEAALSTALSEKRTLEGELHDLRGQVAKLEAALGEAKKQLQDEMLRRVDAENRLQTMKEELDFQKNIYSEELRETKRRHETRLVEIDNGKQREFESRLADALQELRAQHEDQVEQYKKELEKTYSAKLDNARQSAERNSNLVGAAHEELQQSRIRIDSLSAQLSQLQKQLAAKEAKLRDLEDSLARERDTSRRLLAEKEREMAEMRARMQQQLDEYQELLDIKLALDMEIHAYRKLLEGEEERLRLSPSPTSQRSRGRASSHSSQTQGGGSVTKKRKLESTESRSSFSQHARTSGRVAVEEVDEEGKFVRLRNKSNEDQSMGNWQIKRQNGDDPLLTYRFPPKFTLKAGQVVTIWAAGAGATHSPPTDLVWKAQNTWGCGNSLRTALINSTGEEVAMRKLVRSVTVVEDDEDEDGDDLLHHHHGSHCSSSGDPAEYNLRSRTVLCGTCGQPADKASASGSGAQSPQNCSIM

Target: Flag-progerin (HEK-293T) (human) (UniProt P02545)
Experiment: affinity purification with mass spectrometry; Flag-tagged progerin transfected into HEK-293T cells, captured on anti-Flag affinity gel 16 h at 4 °C, washed with 50 mM Tris-HCl pH 7.4, 150 mM NaCl; SDS–PAGE, LC–MS/MS

binding: binds
B1: lamin B2 (protein, UniProt Q03252 1-620)
chain: MSPPSPGRRREQRRPRAAATMATPLPGRAGGPATPLSPTRLSRLQEKEELRELNDRLAHYIDRVRALELENDRLLLKISEKEEVTTREVSGIKALYESELADARRVLDETARERARLQIEIGKLRAELDEVNKSAKKREGELTVAQGRVKDLESLFHRSEVELAAALSDKRGLESDVAELRAQLAKAEDGHAVAKKQLEKETLMRVDLENRCQSLQEELDFRKSVFEEEVRETRRRHERRLVEVDSSRQQEYDFKMAQALEELRSQHDEQVRLYKLELEQTYQAKLDSAKLSSDQNDKAASAAREELKEARMRLESLSYQLSGLQKQASAAEDRIRELEEAMAGERDKFRKMLDAKEQEMTEMRDVMQQQLAEYQELLDVKLALDMEINAYRKLLEGEEERLKLSPSPSSRVTVSRATSSSSGSLSATGRLGRSKRKRLEVEEPLGSGPSVLGTGTGGSGGFHLAQQASASGSVSIEEIDLEGKFVQLKNNSDKDQSLGNWRIKRQVLEGEEIAYKFTPKYILRAGQMVTVWAAGAGVAHSPPSTLVWKGQSSWGTGESFRTVLVNADGEEVAMRTVKKSSVMRENENGEEEEEEAEFGEEDLFHQQGDPRTTSRGCYVM

No constants are given. Whether binding was seen depends on the method and setting. Binding seen in cells or lysates may run through a third protein. Here binding means that the protein was enriched with, or labelled near, the bait; the list need not be complete.
